LdMetRS: 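Primary screen of methionyl-tRNA synthetase; the read-out is not stated. Target: Methionyl-tRNA synthetase (putative), Leishmania donovani (UniProt E9BF75). The test concentration is not given. Values are per cent inhibition. Of about 68,000 compounds tested this way, about 24 (0.035%) reached 50% or more in at least one test.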
Mtb heat-shock: 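Assay on Mycobacterium tuberculosis, filed only as a heat shock assay from Cornell; the read-out is not stated. The concentration is filed as 10 mM, unlikely as a test dose, so the dose is not known. Higher reads as stronger inhibition (inferred: compounds with an IC50 in retests scored well above the rest). Of about 69,000 compounds tested this way, about 930 (1.4%) reached 50% or more in at least one test.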

Amino acid sequences for entries named in this document (tags omitted).
UniProt E9BF75, entry or part of it: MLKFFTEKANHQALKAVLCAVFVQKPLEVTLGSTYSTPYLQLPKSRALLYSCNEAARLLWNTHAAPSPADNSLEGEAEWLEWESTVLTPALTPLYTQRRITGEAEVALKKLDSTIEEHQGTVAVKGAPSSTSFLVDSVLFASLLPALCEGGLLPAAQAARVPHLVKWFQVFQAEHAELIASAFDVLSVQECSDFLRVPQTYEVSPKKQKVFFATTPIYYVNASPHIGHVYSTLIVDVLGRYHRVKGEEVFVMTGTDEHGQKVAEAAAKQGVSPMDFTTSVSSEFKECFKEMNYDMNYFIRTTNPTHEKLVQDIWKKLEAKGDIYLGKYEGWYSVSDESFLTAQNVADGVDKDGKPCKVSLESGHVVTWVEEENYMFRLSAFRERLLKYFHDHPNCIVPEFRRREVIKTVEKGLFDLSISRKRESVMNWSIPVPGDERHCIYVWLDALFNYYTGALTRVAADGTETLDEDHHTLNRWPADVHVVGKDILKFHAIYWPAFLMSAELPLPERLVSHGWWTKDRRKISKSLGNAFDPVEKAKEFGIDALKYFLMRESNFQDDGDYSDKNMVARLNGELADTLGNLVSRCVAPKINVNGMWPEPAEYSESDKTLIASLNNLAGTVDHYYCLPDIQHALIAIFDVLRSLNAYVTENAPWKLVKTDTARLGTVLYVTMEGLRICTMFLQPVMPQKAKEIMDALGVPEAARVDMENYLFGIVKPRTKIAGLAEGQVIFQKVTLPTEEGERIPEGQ

Results are percentages, as filed.
How 0% and 100% were set is not recorded. Most values in the screen are low, and negative values occur.
This is an unselected part of the compounds tested.
A dash means the value is not listed here; it may have been measured.

| # | SMILES | LdMetRS | Mtb heat-shock |
|---|---|---|---|
| 1 | `CC(C)c1cc(=O)[nH]c(C(C)(C)N)n1.Cl` | - | -1.854 |
| 2 | `Cc1cccc(OC2CN(C(=O)c3cnn(C)c3)C2)c1` | 9.749 | -28.17 |
| 3 | `CNc1nc(CNC(=O)Nc2cccc(CN(C)C)c2)cs1` | 14.92 | -38.6 |
| 4 | `Cc1cccc(CN2CCCC3(CCN(CC4CCCO4)CC3)C2)n1` (stereo not shown) | 9.971 | - |
| 5 | `CC(=O)NCc1ccc(C(=O)N2CCCC2c2cnn(C)c2)cc1` (stereo not shown) | 25 | 3.452 |
| 6 | `CCc1nsc(N2CCn3c(nnc3-c3ccccc3)C2)n1` | 14.84 | -8.595 |
| 7 | `Cc1cc(CN(C)CC2CCCCC2)no1` | 7.013 | 6.17 |
| 8 | `CN(C)c1cccc(C(=O)N2CCCc3cc(OC(F)(F)F)ccc32)c1` | 8.992 | 13.11 |
| 9 | `CCCc1cnc(C)nc1NC(C)Cc1cnccn1` (stereo not shown) | 9.045 | -18.77 |
| 10 | `CCC1(CC)C(=O)NC(=O)N/C1=N/c1cccc(OC)c1` | -2.727 | -15 |
| 11 | `CN(C)CCn1c2c(ccc1=O)CCN(Cc1cnn(C)c1)CC2` | 7.692 | - |
| 12 | `Cc1nccc(CN2CC[C@@]3(CCCN3Cc3ccccc3)[C@@H](O)C2)n1` | 15.29 | -19.14 |
| 13 | `CC(Cn1cccn1)n1cnc2cccc(F)c2c1=O` (stereo not shown) | 8.696 | 6.411 |
| 14 | `Cc1nnc(CNC(C)c2cc(C)c(F)c(C)c2)s1` (stereo not shown) | 14.37 | -11.29 |
| 15 | `O=C(Nc1ccc(F)cc1)C1CCc2ccccc2N1` (stereo not shown) | 13.71 | 1.641 |
| 16 | `CN1CCN(C(=O)C[C@@H]2COC[C@H]3CN(c4ccncn4)C[C@@H]23)CC1` | 4.795 | - |
| 17 | `CCOc1ccccc1CCC(=O)Nc1c(C)nn(C)c1C` | 9.214 | -28.06 |
| 18 | `Cc1cc(C)c(CNC(=O)NCCC2CCCO2)c(=O)[nH]1` (stereo not shown) | 20.53 | 10.34 |
| 19 | `Cc1c(C(=O)N2CCCC2c2cnn(C)c2)cnn1-c1ccccc1` (stereo not shown) | 12.78 | -11.55 |
| 20 | `COCCN1CCC(CNC(=O)Nc2ccc(-c3ccccc3)cc2)C1` (stereo not shown) | 15.03 | 2.028 |
| 21 | `OC[C@@H]1CCCN1c1ccc(-c2nc(COc3ccccc3)no2)cn1` | 9.341 | 43.23 |
| 22 | `CN(Cc1nccs1)C1CCN(c2ncccn2)CC1` | 16.55 | 11.1 |
| 23 | `CCc1cc(CN2C[C@H]3CC[C@@H]2CN(C2Cc4ccccc4C2)C3)on1` | 18.75 | - |
| 24 | `COCc1noc(Cc2cc(Cl)c3c(c2)OCCCO3)n1` | 8.58 | -12.51 |
| 25 | `CCSc1ncc(-c2nccn2CCN(C)C)cn1` | -0.3745 | -13.23 |
| 26 | `Cl.Cl.O=C([C@H]1CCCN1)N1CC2(CCNCC2)c2cc(Cl)ccc21` | - | -22.31 |
| 27 | `Cc1nc(CN2CCC3(CC2)CCN(C(=O)c2cscn2)C3)cs1.O=C(O)C(F)(F)F` | - | -0.5094 |
| 28 | `CN1CCN([C@H]2CCN(C(=O)c3cc(Cl)cn3C)C[C@H]2CCCO)CC1` | 9.756 | -12.64 |
| 29 | `COc1cc(CCO)c(OC)c2c1OCO2` | -13.77 | 20.18 |
| 30 | `COCCN1CCc2onc(C(c3ccccc3)c3ccccc3)c2C1` | 4.658 | -5.594 |
| 31 | `CCc1nn(C)c(CC)c1CNC(=O)Nc1cccc2c1CCN2C` | 7.796 | -3.574 |
| 32 | `Fc1cccc(CN2CCC3(CCN3c3ncccn3)C2)c1` (stereo not shown) | 9.836 | - |
| 33 | `COc1cc2c(cc1OC)S(=O)(=O)N(Cc1cnn(C)c1)C2=O` | 13.73 | 13.96 |
| 34 | `c1ccc(C(Cn2cccn2)Nc2cnccn2)cc1` (stereo not shown) | 9.661 | -42.26 |
| 35 | `COc1ccc(O[C@H]2COCCN(Cc3c[nH]c4ccccc34)C2)cc1` | 8.791 | 47.94 |
| 36 | `Cc1ccccc1CC1(CO)CCCN(c2ncnc3sccc23)C1` (stereo not shown) | 20.5 | 13.06 |
| 37 | `Cc1sc(-c2ccco2)nc1C(=O)N1CCCC1Cn1cccn1` (stereo not shown) | 18.23 | -5.051 |
| 38 | `Cc1cccc(CN2CCc3nnc(Cn4cccc4)n3CC2)n1` | 8.964 | - |
| 39 | `[H][C@@]12COC[C@]1(CNC(=O)c1ccno1)CN(Cc1cccnc1OC)C2` | - | 3.541 |
| 40 | `O=C(O)C(F)(F)F.[H][C@@]12CCN(Cc3ccc(OC)cc3)C[C@]1([H])[C@@H](CNC(=O)N(C)C)OC2` | - | -5.716 |

3 of the entries, repeated:

* CN(Cc1nccs1)C1CCN(c2ncccn2)CC1 : LdMetRS: 16.55%; Mtb heat-shock: 11.1%
* Cl.Cl.O=C([C@H]1CCCN1)N1CC2(CCNCC2)c2cc(Cl)ccc21 : Mtb heat-shock: -22.31%
* COCc1noc(Cc2cc(Cl)c3c(c2)OCCCO3)n1 : LdMetRS: 8.58%; Mtb heat-shock: -12.51%

Data taken from ChEMBL document CHEMBL3988442, “University of Dundee, Small-Polar-MMV Screening Library” (2021).